The source of these data is article doi:10.1101/2024.03.04.582938.

Amino acid sequences for entries named in this document (tags omitted). Residues count along the entry.
UniProt P98161, residues 24-4303: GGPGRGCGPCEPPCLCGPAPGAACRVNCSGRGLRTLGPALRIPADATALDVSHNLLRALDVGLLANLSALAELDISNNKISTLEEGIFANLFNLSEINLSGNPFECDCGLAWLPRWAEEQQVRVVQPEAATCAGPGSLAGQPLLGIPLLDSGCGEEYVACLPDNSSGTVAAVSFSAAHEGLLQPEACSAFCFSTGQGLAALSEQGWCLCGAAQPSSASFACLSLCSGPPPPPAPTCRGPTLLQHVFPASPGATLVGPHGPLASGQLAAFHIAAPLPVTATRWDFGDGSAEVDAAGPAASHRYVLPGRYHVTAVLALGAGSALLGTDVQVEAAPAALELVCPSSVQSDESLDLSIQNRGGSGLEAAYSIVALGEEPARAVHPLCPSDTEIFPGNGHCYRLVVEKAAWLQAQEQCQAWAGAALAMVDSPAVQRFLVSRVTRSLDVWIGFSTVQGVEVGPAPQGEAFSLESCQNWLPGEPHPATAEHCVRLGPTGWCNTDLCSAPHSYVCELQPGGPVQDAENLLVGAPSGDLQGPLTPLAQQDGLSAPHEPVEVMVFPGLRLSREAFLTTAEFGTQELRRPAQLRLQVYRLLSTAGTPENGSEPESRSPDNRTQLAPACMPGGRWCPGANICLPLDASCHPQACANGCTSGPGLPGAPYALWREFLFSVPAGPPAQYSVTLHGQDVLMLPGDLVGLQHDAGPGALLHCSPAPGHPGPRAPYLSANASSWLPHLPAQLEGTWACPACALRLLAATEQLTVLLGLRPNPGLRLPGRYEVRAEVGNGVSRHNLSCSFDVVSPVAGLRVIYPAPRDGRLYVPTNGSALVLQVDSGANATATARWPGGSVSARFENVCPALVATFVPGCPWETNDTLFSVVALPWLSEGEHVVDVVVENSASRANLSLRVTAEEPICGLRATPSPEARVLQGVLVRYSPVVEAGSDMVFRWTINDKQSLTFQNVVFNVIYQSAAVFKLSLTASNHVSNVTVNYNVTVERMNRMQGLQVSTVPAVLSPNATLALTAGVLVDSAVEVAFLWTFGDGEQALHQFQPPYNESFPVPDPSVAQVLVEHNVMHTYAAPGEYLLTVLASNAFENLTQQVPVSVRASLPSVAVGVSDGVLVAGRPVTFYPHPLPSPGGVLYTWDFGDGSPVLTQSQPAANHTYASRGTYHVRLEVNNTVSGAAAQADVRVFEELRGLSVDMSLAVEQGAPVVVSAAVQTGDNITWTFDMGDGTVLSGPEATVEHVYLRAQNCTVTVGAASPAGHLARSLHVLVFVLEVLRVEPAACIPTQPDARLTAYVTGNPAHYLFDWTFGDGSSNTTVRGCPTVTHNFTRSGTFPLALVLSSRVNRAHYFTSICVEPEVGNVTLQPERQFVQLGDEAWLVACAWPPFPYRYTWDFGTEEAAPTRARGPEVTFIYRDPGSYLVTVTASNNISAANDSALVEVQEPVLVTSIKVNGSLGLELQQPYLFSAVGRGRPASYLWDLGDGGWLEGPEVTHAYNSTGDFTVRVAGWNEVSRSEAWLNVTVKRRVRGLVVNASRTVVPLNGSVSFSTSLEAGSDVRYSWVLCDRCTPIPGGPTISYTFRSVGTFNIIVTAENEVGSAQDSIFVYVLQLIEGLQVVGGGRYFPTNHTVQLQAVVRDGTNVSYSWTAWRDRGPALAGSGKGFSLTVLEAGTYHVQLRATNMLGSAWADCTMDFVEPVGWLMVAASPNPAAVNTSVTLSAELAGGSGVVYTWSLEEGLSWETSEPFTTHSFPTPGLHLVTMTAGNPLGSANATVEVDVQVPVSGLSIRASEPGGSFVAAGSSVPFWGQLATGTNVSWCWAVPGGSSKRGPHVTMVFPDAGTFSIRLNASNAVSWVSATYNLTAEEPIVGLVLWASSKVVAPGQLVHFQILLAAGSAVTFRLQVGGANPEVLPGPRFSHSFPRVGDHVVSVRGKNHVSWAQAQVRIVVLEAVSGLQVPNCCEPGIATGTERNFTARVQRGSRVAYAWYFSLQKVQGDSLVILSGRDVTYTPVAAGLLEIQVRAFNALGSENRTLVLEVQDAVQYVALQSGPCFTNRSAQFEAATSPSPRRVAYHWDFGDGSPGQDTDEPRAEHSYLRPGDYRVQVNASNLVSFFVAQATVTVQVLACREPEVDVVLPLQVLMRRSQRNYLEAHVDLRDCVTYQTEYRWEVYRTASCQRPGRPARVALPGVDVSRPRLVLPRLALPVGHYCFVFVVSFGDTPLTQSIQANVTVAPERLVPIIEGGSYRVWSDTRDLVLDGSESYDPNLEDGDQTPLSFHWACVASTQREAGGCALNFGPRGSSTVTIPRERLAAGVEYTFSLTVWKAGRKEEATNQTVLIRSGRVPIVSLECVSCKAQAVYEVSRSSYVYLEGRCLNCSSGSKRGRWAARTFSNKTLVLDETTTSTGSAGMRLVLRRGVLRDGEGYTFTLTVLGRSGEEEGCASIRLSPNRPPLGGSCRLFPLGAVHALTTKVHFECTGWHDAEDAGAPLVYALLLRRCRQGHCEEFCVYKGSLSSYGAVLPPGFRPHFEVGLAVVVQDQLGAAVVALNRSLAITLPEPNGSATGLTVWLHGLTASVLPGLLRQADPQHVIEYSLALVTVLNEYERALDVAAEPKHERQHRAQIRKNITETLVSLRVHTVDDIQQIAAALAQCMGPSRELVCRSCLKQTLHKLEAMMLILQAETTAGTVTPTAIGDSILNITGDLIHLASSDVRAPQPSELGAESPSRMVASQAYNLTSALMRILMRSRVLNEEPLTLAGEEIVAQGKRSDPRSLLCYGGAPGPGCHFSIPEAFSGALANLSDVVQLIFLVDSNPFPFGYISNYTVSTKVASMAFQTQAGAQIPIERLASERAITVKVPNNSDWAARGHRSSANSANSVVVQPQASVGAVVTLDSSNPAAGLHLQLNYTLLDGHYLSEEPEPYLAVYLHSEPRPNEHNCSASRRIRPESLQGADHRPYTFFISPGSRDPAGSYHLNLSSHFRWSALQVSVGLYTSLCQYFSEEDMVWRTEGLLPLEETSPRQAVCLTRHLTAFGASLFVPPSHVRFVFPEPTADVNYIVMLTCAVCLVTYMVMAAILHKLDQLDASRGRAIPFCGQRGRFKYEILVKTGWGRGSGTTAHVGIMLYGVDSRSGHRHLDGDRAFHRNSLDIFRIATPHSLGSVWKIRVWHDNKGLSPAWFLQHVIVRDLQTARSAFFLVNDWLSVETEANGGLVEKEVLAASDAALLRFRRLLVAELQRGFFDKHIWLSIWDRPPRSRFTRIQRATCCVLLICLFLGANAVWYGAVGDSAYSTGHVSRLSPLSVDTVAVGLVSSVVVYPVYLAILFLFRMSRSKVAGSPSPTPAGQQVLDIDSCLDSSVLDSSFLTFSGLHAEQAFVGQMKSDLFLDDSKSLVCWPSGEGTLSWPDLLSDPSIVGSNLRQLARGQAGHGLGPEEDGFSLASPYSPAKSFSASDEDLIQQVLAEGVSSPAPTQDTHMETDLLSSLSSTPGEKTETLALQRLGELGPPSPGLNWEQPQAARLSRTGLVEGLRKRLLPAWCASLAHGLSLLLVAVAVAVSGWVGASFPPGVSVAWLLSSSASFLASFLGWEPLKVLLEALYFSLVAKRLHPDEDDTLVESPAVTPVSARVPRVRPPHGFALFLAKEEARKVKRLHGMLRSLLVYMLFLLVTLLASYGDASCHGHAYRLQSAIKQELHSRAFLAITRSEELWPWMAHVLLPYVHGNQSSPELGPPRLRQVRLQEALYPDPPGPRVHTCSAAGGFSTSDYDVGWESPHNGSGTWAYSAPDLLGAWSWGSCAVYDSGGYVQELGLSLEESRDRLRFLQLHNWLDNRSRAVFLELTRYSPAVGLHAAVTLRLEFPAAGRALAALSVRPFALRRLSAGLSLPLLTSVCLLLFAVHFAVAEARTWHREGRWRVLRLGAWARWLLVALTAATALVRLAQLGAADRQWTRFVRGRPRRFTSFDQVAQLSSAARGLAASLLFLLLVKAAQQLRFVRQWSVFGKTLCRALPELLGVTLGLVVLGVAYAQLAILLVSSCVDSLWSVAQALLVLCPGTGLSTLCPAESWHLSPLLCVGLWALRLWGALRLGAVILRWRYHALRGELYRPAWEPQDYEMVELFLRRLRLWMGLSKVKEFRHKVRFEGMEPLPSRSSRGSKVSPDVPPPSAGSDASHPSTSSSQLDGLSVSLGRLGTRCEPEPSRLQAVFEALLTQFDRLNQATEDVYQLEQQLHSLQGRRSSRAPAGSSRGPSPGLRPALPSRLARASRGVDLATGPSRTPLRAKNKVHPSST
UniProt Q9UBS4, residues 23-358: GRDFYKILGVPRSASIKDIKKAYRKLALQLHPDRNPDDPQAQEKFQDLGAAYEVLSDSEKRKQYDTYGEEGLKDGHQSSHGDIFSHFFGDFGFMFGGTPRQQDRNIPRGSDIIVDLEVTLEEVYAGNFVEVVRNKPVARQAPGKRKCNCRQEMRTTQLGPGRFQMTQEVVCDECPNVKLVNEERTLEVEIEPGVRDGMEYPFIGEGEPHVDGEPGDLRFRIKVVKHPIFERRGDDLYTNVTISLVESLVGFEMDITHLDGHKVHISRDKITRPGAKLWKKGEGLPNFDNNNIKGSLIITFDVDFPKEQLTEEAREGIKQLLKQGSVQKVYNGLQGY

This assay addresses FLAG-tagged polycystin-1 (PC1) (UniProt P98161). Briefly: co-IP.

Results are given in words; binding and its absence hold for the method and conditions named. Binding seen in cells or lysates may run through a third protein. Some entries that bind do so weakly or less than the wild type.

For “DNAJB11 (endogenous, HEK 293T) (from UniProt Q9UBS4 23-358)”, the binding entry was “binds”.
